Reference: PubChem BioAssay AID493014 (National Center for Advancing Translational Sciences (NCATS), 2011)
In all, about 340,000 compounds went through this assay and about 170 (0.05%) were called active. The inconclusive results got no clear call from the source; some entries with a clear call stand among them for comparison. The call rests on the fitted dose curve; in most records, active means well fitted inhibition curve with a large enough effect in the signal ratio, with a control signal flat (not every such curve was filed as active); inconclusive means small, poorly fitted or top-dose-only effect, or effect the other way, or a change in a side signal; inactive means flat fitted curve, though single readings scatter; the % refers to the signal ratio. Potencies of inconclusive entries are doubtful fits and often do not repeat.

assay: qHTS Assay to Find Inhibitors of Chronic Active B-Cell Receptor Signaling; conditions: ABC-DLBCL IkBa-CBG/CBR reporter, luminescence ratio (green luciferase fused to IkBa over red control in TMD8 lymphoma cells), 4 h; activity change, negative = inhibition: at 46.1 µM (top of the series) unless noted;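 on activity change, negative = inhibition: plate controls were basal doxycycline-induced cells for no effect and cells given 10 µM MG132 for full effect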
In short: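 Concentration-response series (up to 46 uM) were applied to TMD8 dual-reporter cells for 4 h at 37C with doxycycline. Green/red ratio, after filter-overlap correction, defined %Activity; red signal alone was normalised to basal cells and zero luminescence.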
Potency means the concentration at half of the fitted maximal effect.

Structure (SMILES) | activity change, negative = inhibition | Potency
CN(C)c1nccc(N(Cc2ccccc2)Cc2ccccc2)c1C#N | inconclusive: -4.12% | 
Oc1c(N=NC(=S)Nc2ccccc2F)c2ccccc2n1Cc1ccccc1Cl |  | inconclusive: 12.6 µM [falling, partial curve]
Cc1cccc(N2CCN(C(=O)C3CCN(S(=O)(=O)c4cccc5nsnc45)CC3)CC2C)c1 (centres undefined) | inconclusive: -10.5% | 
CCCCN(CC)CCNC(=O)c1cc2c(=O)n(C)c3ccccc3c2s1 | inconclusive: -0.0367% | 
COc1ccc(-c2nn(-c3ccccc3)cc2C=O)cc1[N+](=O)[O-] | inconclusive: -0.583% | 
COC(=O)c1ccc(CSc2nnc(-c3ccncc3)o2)cc1 | inconclusive: 6.15% | 
COc1ccc(COc2ccc3ccc(=O)oc3c2)cc1 | inconclusive: 3.35% | 
CCCCn1c(SCC(=O)c2ccccc2)nc2c1c(=O)[nH]c(=O)n2C |  | inconclusive: 0.291 µM [rising, partial curve, poor fit]
Cc1cc2occ(CC(=O)OCC(=O)Nc3sc4c(c3C#N)CCC(C)C4)c2cc1C (centres undefined) | inconclusive: 2.92% | 
O=C(COC(=O)c1cc(Br)ccc1Cl)NC1CC1 | inactive | 
Cc1ccc(S(=O)(=O)CCc2nc3ccccc3n2CCC#N)cc1 | inactive | 
Cc1[nH]c(=O)[nH]c(=O)c1S(=O)(=O)NCCc1ccc(S(N)(=O)=O)cc1 | inconclusive: 7.71% | 
N#CCC(=O)N/N=C/c1cn(Cc2cccc3ccccc23)c2ccccc12 | inconclusive: -12.6% | 
CCCOC(=O)Cn1c(=O)c2cc3c(=O)n(CC(=O)OCCC)c(=O)c3cc2c1=O | inconclusive: 12% | 
Cc1ccc2c(c1)cc(C)c1nnc(SCC(=O)NCc3ccco3)n12 | inconclusive: 11.5% | 
Fc1cccc(CCN2C(=S)NC[C@@H]2CC2CCCCC2)c1 | inactive | 
Cc1ccc(C)c(N(C)C(=O)COc2cc(=O)n(C)c3ccccc23)c1 |  | inconclusive: 2.91 µM [falling, single point]
NS(=O)(=O)c1ccc(NC(=O)CN2CCN(S(=O)(=O)/C=C/c3ccccc3)CC2)cc1 | inactive | 
COc1ccccc1CNC(=O)COc1ccc(C)cc1 | inconclusive: -0.71% | 
CCOC(=O)c1ccc(N2CN(CCc3ccccc3)CNC2=S)cc1 |  | inconclusive: 20.6 µM [falling, partial curve]
NS(=O)(=O)c1cccnc1Nc1cccc(Cl)c1 | inconclusive: 12.8% | 
CC1=CCC(/C=N\Nc2nnc3c(n2)[nH]c2ccccc23)CC1 (centres undefined) | inconclusive: -4.25% | 
ONC(=Nc1ccccc1Cl)c1ccccc1Cl |  | inconclusive: 35.5 µM [falling, single point]
CCOc1ccc(-c2cc(N3C(=O)Nc4ccccc4N3O)n[nH]2)cc1 |  | inconclusive: 11.2 µM [falling, single point]
COc1ccc(C(C)=O)c(Oc2ccc(S(=O)(=O)N3CCOCC3)cn2)c1 | inconclusive: 2.51% | 

Structure (SMILES) | activity change, negative = inhibition | Potency
Cc1cccc(NC(=O)CN2CCC(NC(=O)C3CCCCC3)CC2)c1C | inconclusive: 3.08% | 
CCCCCCC(=O)N1CCC(c2nc3c(nnn3Cc3ccccc3Cl)c(=O)[nH]2)CC1 |  | inconclusive: 1.46 µM [rising, partial curve, poor fit]
CC[C@]12c3[nH]c4ccc(Cl)cc4c3CCN1C(=O)[C@@H](CC(=O)NCC13CC4CC(CC(C4)C1)C3)C[C@@H]2C(=O)N1CCN(C(=O)C2CC2)CC1 | inconclusive: -0.774% | 
COc1ccc(NC(=O)Cn2c(CCC(=O)O)ccc2-c2ccccc2)cc1 | inconclusive: 11.2% | 
O=C(NCCc1ccc(Cl)cc1Cl)c1cncc(Br)c1 | inconclusive: -12.3% | 
COc1ccccc1C1SCCN1S(C)(=O)=O (centres undefined) | inactive | 
COc1ccccc1C(=O)n1nc(-c2ccccc2)nc1NCc1ccco1 |  | inconclusive: 6.51 µM [rising, partial curve, poor fit]
CCN1C(=O)[C@@H]2[C@H](C1=O)[C@@H]1C(=O)Nc3ccccc3C(=O)N1[C@@H]2c1ccc(OC)cc1 | inactive | 
COc1cccc(NS(=O)(=O)c2ccc(Br)s2)c1 | inconclusive: -5.02% | 
c1ccc(-c2cn(-c3ccccc3)c3[n+]2CCCS3)cc1 | inactive | 
O=C(c1ccc(-n2c(SCc3cc(F)ccc3F)nc3ccccc3c2=O)cc1)N1CCOCC1 | inconclusive: 2.95% | 
CCOC(=O)CN1C(=N)N(c2nc(NC(C)C)nc(OC)n2)CC1=O | inconclusive: 18% | 
Cc1nc(NC2CCCCC2)c2nnn(Cc3ccccc3Cl)c2n1 | inactive | 
COc1ccc(-n2c(SCC(=O)NCc3ccccc3)nc3n[nH]c(C)c3c2=N)cc1 | inactive | 
Cc1ccc(/C(C#N)=C\c2ccc(N3CCOCC3)o2)cc1 |  | inconclusive: 5.8 µM [cytotoxic, single point]
C#CCOCCOCCOCCNc1nc(N2CCN(C(=O)CCCCCCCCCCNC(=O)Cn3cc(C[C@@H](C)O)nn3)CC2)nc(N2CCN(C(=O)CCCCCCCCCCNC(=O)[C@H](CCCN=C(N)N)n3cc(C[C@@H](C)CC)nn3)CC2)n1 | inconclusive: -2.1% | 
COc1ccc(CCNC(=O)C(=O)c2c(C)n(C)c3ccccc23)cc1OC | inconclusive: -15.2% | 
Cc1ccccc1NC(=O)COc1ccc2oc(=O)cc(C)c2c1 |  | inconclusive: 20 µM [falling, partial curve]
COc1ccc(C(=O)/C=C/c2cc(OC)c(O)c(OC)c2)c(F)c1 |  | inconclusive: 8.2 µM [falling, partial curve]
CCn1nc(C)c(/C=N\NC(=O)c2cccc(OC)c2)c1C |  | inconclusive: 20.6 µM [falling, partial curve, poor fit]
CC(=O)Nc1ccc2c(CSc3nnc(N)s3)cc(=O)oc2c1 | inconclusive: -7.17% | 
O=C(N/N=C/c1cccc2ccccc12)c1cccs1 |  | inconclusive: 35.5 µM [falling, single point]
Cc1ccccc1C(=O)c1cccn1CC(=O)NCCN1CCN(c2cccc(C)c2C)CC1 | inconclusive: 5.47% | 
N#Cc1ccc(OCc2nnc(-c3ccc([N+](=O)[O-])cc3)o2)cc1 | inconclusive: 1.11% | 

3 compounds from above, sorted by molecular weight, low to high:
Structure (SMILES) | activity change, negative = inhibition | Potency
N#Cc1ccc(OCc2nnc(-c3ccc([N+](=O)[O-])cc3)o2)cc1 | inconclusive: 1.11% | 
CN(C)c1nccc(N(Cc2ccccc2)Cc2ccccc2)c1C#N | inconclusive: -4.12% | 
Cc1cc2occ(CC(=O)OCC(=O)Nc3sc4c(c3C#N)CCC(C)C4)c2cc1C (centres undefined) | inconclusive: 2.92% | 
